{
  "sequences": {"note": "The chains behind the UniProt entries cited, without tags or fusion partners. Where a name states a change or a piece, a line headed by the entry shows the natural chain unless it says otherwise. Residues count along the entry.", "UniProt Q00610": "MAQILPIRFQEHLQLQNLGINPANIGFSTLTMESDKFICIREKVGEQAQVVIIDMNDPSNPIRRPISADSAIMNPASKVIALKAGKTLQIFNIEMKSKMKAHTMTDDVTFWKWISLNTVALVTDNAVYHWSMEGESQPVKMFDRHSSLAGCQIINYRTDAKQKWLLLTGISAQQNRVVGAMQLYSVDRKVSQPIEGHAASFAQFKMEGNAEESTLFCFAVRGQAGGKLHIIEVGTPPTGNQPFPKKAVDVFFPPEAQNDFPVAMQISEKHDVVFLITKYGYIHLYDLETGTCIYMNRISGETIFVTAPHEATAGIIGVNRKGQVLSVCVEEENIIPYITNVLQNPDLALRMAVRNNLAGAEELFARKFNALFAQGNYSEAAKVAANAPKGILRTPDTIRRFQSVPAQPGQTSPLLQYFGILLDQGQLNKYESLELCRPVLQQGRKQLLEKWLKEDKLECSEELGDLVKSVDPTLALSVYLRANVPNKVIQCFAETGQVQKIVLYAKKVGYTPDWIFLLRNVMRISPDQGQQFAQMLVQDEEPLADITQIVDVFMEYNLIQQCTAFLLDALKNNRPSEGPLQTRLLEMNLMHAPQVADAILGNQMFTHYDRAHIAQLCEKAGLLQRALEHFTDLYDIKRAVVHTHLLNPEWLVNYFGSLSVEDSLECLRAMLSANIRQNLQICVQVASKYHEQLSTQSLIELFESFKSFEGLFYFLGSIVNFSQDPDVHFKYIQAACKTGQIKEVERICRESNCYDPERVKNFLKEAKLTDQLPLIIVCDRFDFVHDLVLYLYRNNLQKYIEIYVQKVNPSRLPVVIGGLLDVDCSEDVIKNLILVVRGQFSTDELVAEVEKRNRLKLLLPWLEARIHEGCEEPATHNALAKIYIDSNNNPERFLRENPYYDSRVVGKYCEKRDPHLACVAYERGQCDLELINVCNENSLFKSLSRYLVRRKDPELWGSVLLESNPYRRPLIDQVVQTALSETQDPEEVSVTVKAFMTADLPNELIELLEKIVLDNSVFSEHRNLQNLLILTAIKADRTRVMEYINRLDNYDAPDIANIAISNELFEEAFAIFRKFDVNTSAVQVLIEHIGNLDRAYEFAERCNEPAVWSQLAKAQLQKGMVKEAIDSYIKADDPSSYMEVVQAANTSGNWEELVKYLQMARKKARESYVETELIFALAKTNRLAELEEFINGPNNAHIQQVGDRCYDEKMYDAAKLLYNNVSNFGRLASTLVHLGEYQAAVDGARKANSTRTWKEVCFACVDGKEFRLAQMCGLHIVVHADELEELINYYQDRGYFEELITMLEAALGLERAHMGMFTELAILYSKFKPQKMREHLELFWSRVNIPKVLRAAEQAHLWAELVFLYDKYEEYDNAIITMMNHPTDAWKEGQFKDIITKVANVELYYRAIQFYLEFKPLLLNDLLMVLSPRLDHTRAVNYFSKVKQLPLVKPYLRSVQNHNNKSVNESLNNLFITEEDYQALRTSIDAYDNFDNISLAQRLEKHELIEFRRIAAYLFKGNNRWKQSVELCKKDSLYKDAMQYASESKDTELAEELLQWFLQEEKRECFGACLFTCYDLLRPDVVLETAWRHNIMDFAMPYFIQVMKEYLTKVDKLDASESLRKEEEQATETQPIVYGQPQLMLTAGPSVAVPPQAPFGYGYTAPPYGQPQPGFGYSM", "UniProt Q99829": "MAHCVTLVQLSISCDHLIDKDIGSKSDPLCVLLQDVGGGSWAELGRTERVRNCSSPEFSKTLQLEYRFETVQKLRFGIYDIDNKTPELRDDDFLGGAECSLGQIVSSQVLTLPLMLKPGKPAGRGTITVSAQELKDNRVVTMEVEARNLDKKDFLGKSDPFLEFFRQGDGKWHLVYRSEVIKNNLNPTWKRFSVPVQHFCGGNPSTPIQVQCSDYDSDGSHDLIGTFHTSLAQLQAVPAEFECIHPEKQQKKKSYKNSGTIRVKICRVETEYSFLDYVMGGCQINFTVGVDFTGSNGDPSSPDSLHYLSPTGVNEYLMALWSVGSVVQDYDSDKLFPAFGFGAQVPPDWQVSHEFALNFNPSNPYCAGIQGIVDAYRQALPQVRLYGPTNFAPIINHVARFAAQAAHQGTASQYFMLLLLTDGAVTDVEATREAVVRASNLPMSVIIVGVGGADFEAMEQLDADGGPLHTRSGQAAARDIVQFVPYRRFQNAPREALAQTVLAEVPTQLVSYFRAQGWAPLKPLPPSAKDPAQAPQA", "UniProt Q86VU5": "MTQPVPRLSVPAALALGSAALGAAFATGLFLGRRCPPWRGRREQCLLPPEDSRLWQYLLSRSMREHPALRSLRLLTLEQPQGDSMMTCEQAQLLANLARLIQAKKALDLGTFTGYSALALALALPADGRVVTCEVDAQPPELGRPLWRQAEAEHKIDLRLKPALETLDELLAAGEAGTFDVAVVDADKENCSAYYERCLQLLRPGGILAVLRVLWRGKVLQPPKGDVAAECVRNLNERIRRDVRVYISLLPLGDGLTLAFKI", "UniProt P53675": "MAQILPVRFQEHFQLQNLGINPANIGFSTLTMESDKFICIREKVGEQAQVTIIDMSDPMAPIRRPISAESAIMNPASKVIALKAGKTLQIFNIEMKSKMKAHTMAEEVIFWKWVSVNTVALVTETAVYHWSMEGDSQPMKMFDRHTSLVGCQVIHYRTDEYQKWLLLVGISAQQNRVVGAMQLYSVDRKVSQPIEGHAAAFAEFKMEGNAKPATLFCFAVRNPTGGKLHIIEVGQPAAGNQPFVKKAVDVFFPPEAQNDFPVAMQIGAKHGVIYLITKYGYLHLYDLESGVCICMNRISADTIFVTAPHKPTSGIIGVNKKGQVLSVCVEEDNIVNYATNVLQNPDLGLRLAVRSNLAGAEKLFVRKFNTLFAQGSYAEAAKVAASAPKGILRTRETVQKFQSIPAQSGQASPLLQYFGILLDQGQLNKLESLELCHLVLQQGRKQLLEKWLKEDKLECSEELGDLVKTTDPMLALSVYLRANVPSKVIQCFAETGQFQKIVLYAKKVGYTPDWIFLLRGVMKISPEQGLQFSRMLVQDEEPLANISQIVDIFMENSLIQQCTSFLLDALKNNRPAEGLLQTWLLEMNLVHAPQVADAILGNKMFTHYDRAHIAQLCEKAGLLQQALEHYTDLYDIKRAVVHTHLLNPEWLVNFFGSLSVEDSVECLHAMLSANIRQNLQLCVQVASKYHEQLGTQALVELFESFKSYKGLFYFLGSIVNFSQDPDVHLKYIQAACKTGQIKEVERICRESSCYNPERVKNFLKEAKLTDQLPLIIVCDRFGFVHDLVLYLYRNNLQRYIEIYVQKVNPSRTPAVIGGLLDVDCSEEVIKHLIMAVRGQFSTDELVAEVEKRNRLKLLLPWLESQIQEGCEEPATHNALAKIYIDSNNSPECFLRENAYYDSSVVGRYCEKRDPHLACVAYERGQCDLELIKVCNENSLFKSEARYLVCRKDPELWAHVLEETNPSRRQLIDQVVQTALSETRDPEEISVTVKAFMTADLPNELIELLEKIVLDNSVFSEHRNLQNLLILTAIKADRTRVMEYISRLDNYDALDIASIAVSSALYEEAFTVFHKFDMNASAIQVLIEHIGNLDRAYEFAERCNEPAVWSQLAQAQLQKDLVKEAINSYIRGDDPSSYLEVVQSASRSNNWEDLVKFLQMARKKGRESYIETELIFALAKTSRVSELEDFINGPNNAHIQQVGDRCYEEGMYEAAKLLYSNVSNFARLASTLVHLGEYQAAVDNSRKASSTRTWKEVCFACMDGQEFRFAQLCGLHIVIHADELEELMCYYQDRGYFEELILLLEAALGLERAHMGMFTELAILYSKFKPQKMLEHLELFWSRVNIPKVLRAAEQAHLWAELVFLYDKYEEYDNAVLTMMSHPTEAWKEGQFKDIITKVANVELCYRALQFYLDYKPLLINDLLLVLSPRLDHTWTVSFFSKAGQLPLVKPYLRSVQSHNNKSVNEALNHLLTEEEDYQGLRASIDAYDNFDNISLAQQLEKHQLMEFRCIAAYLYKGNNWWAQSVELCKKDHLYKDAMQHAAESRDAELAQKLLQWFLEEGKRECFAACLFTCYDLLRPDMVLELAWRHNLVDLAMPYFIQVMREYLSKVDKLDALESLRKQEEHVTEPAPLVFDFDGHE", "UniProt P35606": "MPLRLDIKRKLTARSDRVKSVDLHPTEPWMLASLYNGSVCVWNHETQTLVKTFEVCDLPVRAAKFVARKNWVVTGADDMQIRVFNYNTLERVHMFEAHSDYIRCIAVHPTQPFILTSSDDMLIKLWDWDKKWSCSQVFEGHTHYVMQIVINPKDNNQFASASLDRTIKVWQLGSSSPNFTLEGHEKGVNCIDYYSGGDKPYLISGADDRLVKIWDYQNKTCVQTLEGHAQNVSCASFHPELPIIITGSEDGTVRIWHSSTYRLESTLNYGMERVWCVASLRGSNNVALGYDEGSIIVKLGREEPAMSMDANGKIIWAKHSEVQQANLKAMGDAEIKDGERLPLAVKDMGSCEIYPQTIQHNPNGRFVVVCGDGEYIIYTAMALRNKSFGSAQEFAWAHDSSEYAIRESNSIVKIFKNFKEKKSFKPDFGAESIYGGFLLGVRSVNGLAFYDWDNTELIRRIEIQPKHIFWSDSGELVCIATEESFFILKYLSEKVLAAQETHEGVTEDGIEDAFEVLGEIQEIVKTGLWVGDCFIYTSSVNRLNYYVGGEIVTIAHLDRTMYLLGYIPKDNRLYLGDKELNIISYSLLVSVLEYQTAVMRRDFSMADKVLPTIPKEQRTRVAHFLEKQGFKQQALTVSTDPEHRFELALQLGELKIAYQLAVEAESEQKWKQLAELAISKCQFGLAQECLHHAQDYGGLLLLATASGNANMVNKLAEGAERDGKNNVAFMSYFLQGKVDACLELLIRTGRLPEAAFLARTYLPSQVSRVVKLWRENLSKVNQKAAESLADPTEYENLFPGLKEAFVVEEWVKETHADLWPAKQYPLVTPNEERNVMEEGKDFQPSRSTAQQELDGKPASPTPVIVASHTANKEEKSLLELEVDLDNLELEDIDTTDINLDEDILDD", "UniProt Q9H6Q4, 429-456": "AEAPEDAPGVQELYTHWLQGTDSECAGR", "UniProt P21964": "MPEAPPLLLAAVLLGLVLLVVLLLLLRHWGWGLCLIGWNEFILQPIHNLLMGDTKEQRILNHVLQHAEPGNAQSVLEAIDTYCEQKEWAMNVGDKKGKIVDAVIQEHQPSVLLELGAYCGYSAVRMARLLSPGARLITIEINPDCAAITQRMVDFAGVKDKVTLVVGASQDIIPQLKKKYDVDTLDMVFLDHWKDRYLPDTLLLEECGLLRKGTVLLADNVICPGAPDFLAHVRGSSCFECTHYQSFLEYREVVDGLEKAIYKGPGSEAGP", "UniProt Q86WW8": "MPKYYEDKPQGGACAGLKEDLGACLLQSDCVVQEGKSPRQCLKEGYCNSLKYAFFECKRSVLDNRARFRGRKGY", "UniProt O15111": "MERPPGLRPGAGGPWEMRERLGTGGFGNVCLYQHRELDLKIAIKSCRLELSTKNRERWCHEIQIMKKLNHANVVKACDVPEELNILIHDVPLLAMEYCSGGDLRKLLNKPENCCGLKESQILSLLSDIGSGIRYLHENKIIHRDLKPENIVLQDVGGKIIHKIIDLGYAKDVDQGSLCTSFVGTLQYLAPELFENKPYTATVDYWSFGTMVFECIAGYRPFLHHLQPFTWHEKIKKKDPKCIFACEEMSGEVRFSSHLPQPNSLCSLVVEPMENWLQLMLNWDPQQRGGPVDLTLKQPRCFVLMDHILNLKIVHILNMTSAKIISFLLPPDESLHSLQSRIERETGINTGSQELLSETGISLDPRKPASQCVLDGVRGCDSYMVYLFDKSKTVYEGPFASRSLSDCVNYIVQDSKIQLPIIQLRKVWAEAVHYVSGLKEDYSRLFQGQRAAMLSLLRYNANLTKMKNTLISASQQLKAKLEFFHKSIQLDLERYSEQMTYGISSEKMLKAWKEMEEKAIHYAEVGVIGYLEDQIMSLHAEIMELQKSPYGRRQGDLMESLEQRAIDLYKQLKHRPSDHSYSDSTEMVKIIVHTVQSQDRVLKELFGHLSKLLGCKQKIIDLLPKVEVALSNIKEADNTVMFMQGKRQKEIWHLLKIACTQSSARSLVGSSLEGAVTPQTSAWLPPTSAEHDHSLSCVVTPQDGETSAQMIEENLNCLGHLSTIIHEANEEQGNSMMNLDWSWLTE", "UniProt P36551": "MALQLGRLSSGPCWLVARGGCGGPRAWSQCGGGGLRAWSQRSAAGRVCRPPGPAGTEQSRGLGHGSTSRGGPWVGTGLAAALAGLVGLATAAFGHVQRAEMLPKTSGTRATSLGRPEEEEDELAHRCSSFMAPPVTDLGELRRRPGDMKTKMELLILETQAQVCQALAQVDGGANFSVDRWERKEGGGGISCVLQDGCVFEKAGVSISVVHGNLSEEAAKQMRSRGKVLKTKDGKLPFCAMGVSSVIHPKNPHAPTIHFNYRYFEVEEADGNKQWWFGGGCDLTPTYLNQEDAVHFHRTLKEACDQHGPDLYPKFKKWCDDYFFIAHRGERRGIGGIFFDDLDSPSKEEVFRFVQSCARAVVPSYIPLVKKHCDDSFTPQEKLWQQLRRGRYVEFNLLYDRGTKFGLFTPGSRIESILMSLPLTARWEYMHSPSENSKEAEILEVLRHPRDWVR"},
  "source": "the supplement of paper PMC11732987",
  "about": "“Enantioselective OTUD7B fragment discovery through chemoproteomics screening and high-throughput optimisation” (Communications Chemistry, 2025)",
  "note": "Some of the results follow. The data scatter; read single values as rough.",
  "data": [
    {"compound": "ClCC(=O)N[C@@H]1CCCc2ccccc12", "experiment": "log2 mean competition ratio of IA-DTB cysteine labelling (DMSO/compound) (log2 ratio); higher = stronger cysteine engagement by compound", "settings": "50 µM; treatment time: 4 h; cell line lysate: HEK293T", "method": "(§1)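 IA-DTB competitive cysteine chemoproteomics in HEK293T RIPA lysate. Lysates were treated with compound 29 or 30 at 50 or 200 µM for 4 h, then IA-DTB (500 µM, 1 h), trypsin-digested, NeutrAvidin-enriched and analysed by diaPASEF. Competition ratio = intensity DMSO / intensity compound (n=4 treated, n=64 DMSO); binding: mean log2 CR ≥ 1 and p ≤ 0.05 plus QC filters. Target is the cysteine site.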", "values": [
      {"target": "COPG2 C44 (UniProt Q9UBF2)", "log2 mean competition ratio": 0.55},
      {"target": "CLTC C1528 (UniProt Q00610)", "log2 mean competition ratio": -0.32},
      {"target": "CPNE1 C53 (UniProt Q99829)", "log2 mean competition ratio": 0.364},
      {"target": "COMTD1 C231 (UniProt Q86VU5)", "log2 mean competition ratio": 0.0881},
      {"target": "COA7 C172 (UniProt Q96BR5)", "log2 mean competition ratio": -0.138},
      {"target": "CMAS C394 (UniProt Q8NFW8)", "log2 mean competition ratio": 0.0136},
      {"target": "CLUAP1 C292", "log2 mean competition ratio": -0.219},
      {"target": "CKAP5 C493 (UniProt Q14008)", "log2 mean competition ratio": 0.152},
      {"target": "CHD9 C1705 (UniProt Q3L8U1)", "log2 mean competition ratio": 0.0085},
      {"target": "CMIP C40 (UniProt Q8IY22)", "log2 mean competition ratio": -0.00607},
      {"target": "CHORDC1 C86 (UniProt Q9UHD1)", "log2 mean competition ratio": -0.188},
      {"target": "CLTC C870 (UniProt Q00610)", "log2 mean competition ratio": 0.117},
      {"target": "CLTCL1 C753 (UniProt P53675)", "log2 mean competition ratio": 0.558},
      {"target": "CORO1C C456 (UniProt Q9ULV4)", "log2 mean competition ratio": -0.0907},
      {"target": "COMMD3 C90 (UniProt Q9UBI1)", "log2 mean competition ratio": -0.299},
      {"target": "COG8 C96 (UniProt Q96MW5)", "log2 mean competition ratio": -0.0136},
      {"target": "CLCC1 C279 (UniProt Q96S66)", "log2 mean competition ratio": 0.0122},
      {"target": "COPB2 C56 (UniProt P35606)", "log2 mean competition ratio": -0.198},
      {"target": "CORO7 C505 (UniProt P57737)", "log2 mean competition ratio": 0.0733},
      {"target": "CIAO3 C453 (UniProt Q9H6Q4)", "log2 mean competition ratio": 0.371},
      {"target": "CLTCL1 C1205 (UniProt P53675)", "log2 mean competition ratio": 0.315},
      {"target": "CNOT4 C175 (UniProt O95628)", "log2 mean competition ratio": -0.179},
      {"target": "COL4A2 C42 (UniProt P08572)", "log2 mean competition ratio": 0.0191},
      {"target": "CLMN C353", "log2 mean competition ratio": 0.0499},
      {"target": "COQ5 C170 (UniProt Q5HYK3)", "log2 mean competition ratio": 0.0039},
      {"target": "CHTF8 C83", "log2 mean competition ratio": -0.0673},
      {"target": "CNOT1 C1706 (UniProt A5YKK6)", "log2 mean competition ratio": 0.0341},
      {"target": "CPE C300", "log2 mean competition ratio": 0.331},
      {"target": "CLUH C732", "log2 mean competition ratio": 0.152},
      {"target": "COMT C207 (UniProt P21964)", "log2 mean competition ratio": 0.104},
      {"target": "COA5 C14 (UniProt Q86WW8)", "log2 mean competition ratio": 0.204},
      {"target": "CHD4 C452", "log2 mean competition ratio": -0.31},
      {"target": "CKMT1B C179", "log2 mean competition ratio": -1.05},
      {"target": "COMT C145 (UniProt P21964)", "log2 mean competition ratio": -0.382},
      {"target": "CHUK C371 (UniProt O15111)", "log2 mean competition ratio": 0.086},
      {"target": "CNOT10 C327 (UniProt Q9H9A5)", "log2 mean competition ratio": -0.219},
      {"target": "CPOX C373 (UniProt P36551)", "log2 mean competition ratio": 0.354}
    ]},
    {"compound": "ClCC(=O)N[C@@H]1CCCc2ccccc12", "experiment": "log2 mean competition ratio of IA-DTB cysteine labelling (DMSO/compound) (log2 ratio); higher = stronger cysteine engagement by compound", "settings": "200 µM; treatment time: 4 h; cell line lysate: HEK293T", "method": "as §1", "values": [
      {"target": "COPG2 C44 (UniProt Q9UBF2)", "log2 mean competition ratio": -0.35},
      {"target": "CLTC C1528 (UniProt Q00610)", "log2 mean competition ratio": 0.11},
      {"target": "CPNE1 C53 (UniProt Q99829)", "log2 mean competition ratio": -0.811},
      {"target": "COMTD1 C231 (UniProt Q86VU5)", "log2 mean competition ratio": -0.0533},
      {"target": "COA7 C172 (UniProt Q96BR5)", "log2 mean competition ratio": 0.127},
      {"target": "CMAS C394 (UniProt Q8NFW8)", "log2 mean competition ratio": -0.00788},
      {"target": "CLUAP1 C292", "log2 mean competition ratio": -0.474},
      {"target": "CKAP5 C493 (UniProt Q14008)", "log2 mean competition ratio": -0.254},
      {"target": "CHD9 C1705 (UniProt Q3L8U1)", "log2 mean competition ratio": -0.0653},
      {"target": "CMIP C40 (UniProt Q8IY22)", "log2 mean competition ratio": 0.279},
      {"target": "CHORDC1 C86 (UniProt Q9UHD1)", "log2 mean competition ratio": -0.188},
      {"target": "CLTC C870 (UniProt Q00610)", "log2 mean competition ratio": -0.262},
      {"target": "CLTCL1 C753 (UniProt P53675)", "log2 mean competition ratio": -0.0393},
      {"target": "CORO1C C456 (UniProt Q9ULV4)", "log2 mean competition ratio": -0.0545},
      {"target": "COMMD3 C90 (UniProt Q9UBI1)", "log2 mean competition ratio": 0.123},
      {"target": "COG8 C96 (UniProt Q96MW5)", "log2 mean competition ratio": 0.672},
      {"target": "CLCC1 C279 (UniProt Q96S66)", "log2 mean competition ratio": -0.108},
      {"target": "COPB2 C56 (UniProt P35606)", "log2 mean competition ratio": -0.199},
      {"target": "CORO7 C505 (UniProt P57737)", "log2 mean competition ratio": -0.0872},
      {"target": "CIAO3 C453 (UniProt Q9H6Q4)", "log2 mean competition ratio": -0.223},
      {"target": "CLTCL1 C1205 (UniProt P53675)", "log2 mean competition ratio": 0.159},
      {"target": "CNOT4 C175 (UniProt O95628)", "log2 mean competition ratio": -0.0842},
      {"target": "COL4A2 C42 (UniProt P08572)", "log2 mean competition ratio": 0.163},
      {"target": "CLMN C353", "log2 mean competition ratio": 0.201},
      {"target": "COQ5 C170 (UniProt Q5HYK3)", "log2 mean competition ratio": -0.0714},
      {"target": "CHTF8 C83", "log2 mean competition ratio": 0.132},
      {"target": "CNOT1 C1706 (UniProt A5YKK6)", "log2 mean competition ratio": 0.0173},
      {"target": "CPE C300", "log2 mean competition ratio": 0.429},
      {"target": "CLUH C732", "log2 mean competition ratio": 0.0733},
      {"target": "COMT C207 (UniProt P21964)", "log2 mean competition ratio": -0.113},
      {"target": "COA5 C14 (UniProt Q86WW8)", "log2 mean competition ratio": 0.0606},
      {"target": "CHD4 C452", "log2 mean competition ratio": 0.157},
      {"target": "CKMT1B C179", "log2 mean competition ratio": -2.76},
      {"target": "COMT C145 (UniProt P21964)", "log2 mean competition ratio": 0.187},
      {"target": "CHUK C371 (UniProt O15111)", "log2 mean competition ratio": 0.367},
      {"target": "CNOT10 C327 (UniProt Q9H9A5)", "log2 mean competition ratio": -0.376},
      {"target": "CPOX C373 (UniProt P36551)", "log2 mean competition ratio": 0.335}
    ]}
  ]
}
